Test [1] concerns the target Hepatitis E virus macro domain (Hepatitis E virus) (UniProt P29324). The test is described as follows: SEC; Superdex Increase 75 10/300 GL, 10 mM sodium acetate, 5 mM EDTA, pH 5.4; elution according to molecular weight; both purified.
The target is the same in test [2]. The test can be described thus: condition: 0.4 mM (apo form), 0.5 mM (ADP-ribose bound form); NMR 1H-15N HSQC (signal dispersion and line widths); 0.4 mM apo form and 0.5 mM with ADP-ribose at 1:10; 10 mM sodium acetate, 5 mM EDTA, pH 5.4, 298 K, 700 MHz; both purified.

Sequences of proteins named here, by UniProt entry; tags and fusion partners are left off. Residues count along the entry.
UniProt P29324, residues 772-926: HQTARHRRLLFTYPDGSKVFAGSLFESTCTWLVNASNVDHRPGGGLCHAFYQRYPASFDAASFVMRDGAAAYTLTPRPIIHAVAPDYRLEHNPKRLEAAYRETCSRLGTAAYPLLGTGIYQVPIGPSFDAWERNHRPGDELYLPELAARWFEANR

Results are given in words; binding and its absence hold for the method and conditions named.

On to “Hepatitis E virus macro domain (from UniProt P29324 772-926) (domain or fragment)”, for which the binding result in test [1] and in test [2] was “no binding” in each case.

Source of the values: paper PMC9589693.
